Laboratory results from paper doi:10.1101/2020.04.20.033787 (bioRxiv, 2020).
Results are given in words; binding and its absence hold for the method and conditions named. For part of these data: Binding seen in cells or lysates may run through a third protein. Some entries that bind do so weakly or less than the wild type. Where a sequence is shown, tags or fusion partners need not be part of it.

Assays:
[1] = biological target: T1, Whi5^13MYC (S. cerevisiae) (UniProt Q12416); assay: co-IP
T1 sequence: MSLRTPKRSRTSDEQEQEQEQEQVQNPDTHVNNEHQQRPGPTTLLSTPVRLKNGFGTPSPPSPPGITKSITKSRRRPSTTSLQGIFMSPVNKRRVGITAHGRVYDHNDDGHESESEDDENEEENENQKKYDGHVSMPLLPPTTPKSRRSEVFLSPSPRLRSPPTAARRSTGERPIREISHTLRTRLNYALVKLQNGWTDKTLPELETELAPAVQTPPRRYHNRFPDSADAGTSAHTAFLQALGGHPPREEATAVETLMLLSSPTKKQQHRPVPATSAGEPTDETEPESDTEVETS

[2] = biological target: T2, Whi5^HA (S. cerevisiae) (UniProt Q12416); assay: co-IP
T2 sequence: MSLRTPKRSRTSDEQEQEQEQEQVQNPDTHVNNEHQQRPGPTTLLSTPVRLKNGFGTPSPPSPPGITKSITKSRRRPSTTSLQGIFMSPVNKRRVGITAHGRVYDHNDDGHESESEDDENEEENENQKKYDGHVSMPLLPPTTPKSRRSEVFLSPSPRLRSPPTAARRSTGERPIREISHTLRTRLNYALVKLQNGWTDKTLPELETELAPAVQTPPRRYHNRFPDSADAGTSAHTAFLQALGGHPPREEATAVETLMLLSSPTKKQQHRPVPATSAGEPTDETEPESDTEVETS

[3] = biological target: T3, ^FLAGMbp1 (recombinant, insect cells) (S. cerevisiae) (UniProt P39678); assay: co-purification on anti-FLAG resin
T3 sequence: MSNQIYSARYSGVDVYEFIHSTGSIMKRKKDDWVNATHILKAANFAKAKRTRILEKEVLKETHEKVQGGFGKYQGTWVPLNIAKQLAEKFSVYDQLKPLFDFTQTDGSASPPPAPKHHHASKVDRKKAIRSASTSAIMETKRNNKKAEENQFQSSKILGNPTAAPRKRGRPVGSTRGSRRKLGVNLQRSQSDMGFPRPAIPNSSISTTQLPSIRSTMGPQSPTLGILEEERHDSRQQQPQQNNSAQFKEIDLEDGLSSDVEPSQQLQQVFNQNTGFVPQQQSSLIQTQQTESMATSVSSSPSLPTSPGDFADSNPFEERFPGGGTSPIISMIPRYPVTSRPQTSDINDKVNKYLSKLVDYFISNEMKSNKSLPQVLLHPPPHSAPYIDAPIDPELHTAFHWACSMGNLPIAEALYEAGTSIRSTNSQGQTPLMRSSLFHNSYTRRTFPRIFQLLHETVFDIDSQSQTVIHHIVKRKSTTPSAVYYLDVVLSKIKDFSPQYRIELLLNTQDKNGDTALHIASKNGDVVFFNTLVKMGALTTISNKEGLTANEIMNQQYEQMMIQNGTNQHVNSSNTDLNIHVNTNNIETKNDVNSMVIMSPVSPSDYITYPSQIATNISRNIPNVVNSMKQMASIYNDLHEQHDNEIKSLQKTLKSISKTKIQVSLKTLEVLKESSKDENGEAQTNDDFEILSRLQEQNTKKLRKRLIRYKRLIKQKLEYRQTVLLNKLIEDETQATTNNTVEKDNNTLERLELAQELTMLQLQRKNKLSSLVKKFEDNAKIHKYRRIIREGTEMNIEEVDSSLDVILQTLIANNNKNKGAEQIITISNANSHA

[4] = biological target: T4, ^FLAGSwi4 (recombinant, insect cells) (S. cerevisiae) (UniProt P25302); assay: co-purification on anti-FLAG resin
T4 sequence: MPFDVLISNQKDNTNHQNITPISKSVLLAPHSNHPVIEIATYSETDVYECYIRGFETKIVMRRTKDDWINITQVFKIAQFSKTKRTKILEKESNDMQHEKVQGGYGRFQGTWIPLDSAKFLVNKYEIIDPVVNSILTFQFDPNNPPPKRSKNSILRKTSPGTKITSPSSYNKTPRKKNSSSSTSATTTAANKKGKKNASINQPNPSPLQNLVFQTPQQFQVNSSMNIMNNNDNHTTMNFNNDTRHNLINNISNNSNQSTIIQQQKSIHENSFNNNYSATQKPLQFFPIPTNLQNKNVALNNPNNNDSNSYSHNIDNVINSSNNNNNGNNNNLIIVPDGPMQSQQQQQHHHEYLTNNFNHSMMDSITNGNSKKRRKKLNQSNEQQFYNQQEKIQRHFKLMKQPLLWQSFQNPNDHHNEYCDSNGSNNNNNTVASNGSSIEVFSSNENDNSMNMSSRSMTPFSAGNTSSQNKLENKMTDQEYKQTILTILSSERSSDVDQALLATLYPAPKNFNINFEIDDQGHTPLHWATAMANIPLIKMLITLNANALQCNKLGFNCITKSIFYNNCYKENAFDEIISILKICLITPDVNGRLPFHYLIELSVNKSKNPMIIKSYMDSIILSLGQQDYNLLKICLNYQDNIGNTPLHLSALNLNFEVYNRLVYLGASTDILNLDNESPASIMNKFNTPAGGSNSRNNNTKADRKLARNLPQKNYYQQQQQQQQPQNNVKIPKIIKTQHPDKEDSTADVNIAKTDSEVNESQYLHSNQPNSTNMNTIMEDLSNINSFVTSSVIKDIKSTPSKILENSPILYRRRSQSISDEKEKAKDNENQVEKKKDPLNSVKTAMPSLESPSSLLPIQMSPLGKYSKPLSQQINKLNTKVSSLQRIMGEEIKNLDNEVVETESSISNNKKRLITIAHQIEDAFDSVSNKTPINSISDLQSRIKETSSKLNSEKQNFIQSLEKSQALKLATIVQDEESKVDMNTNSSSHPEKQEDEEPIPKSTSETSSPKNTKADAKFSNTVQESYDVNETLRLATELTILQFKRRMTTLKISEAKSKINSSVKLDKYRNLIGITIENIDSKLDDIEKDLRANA

Binder	binding [1]	binding [2]	binding [3]	binding [4]
Swi4 (protein, UniProt P25302 1-1093) MPFDVLISNQKDNTNHQNITPISKSVLLAPHSNHPVIEIATYSETDVYECYIRGFETKIVMRRTKDDWINITQVFKIAQFSKTKRTKILEKESNDMQHEKVQGGYGRFQGTWIPLDSAKFLVNKYEIIDPVVNSILTFQFDPNNPPPKRSKNSILRKTSPGTKITSPSSYNKTPRKKNSSSSTSATTTAANKKGKKNASINQPNPSPLQNLVFQTPQQFQVNSSMNIMNNNDNHTTMNFNNDTRHNLINNISNNSNQSTIIQQQKSIHENSFNNNYSATQKPLQFFPIPTNLQNKNVALNNPNNNDSNSYSHNIDNVINSSNNNNNGNNNNLIIVPDGPMQSQQQQQHHHEYLTNNFNHSMMDSITNGNSKKRRKKLNQSNEQQFYNQQEKIQRHFKLMKQPLLWQSFQNPNDHHNEYCDSNGSNNNNNTVASNGSSIEVFSSNENDNSMNMSSRSMTPFSAGNTSSQNKLENKMTDQEYKQTILTILSSERSSDVDQALLATLYPAPKNFNINFEIDDQGHTPLHWATAMANIPLIKMLITLNANALQCNKLGFNCITKSIFYNNCYKENAFDEIISILKICLITPDVNGRLPFHYLIELSVNKSKNPMIIKSYMDSIILSLGQQDYNLLKICLNYQDNIGNTPLHLSALNLNFEVYNRLVYLGASTDILNLDNESPASIMNKFNTPAGGSNSRNNNTKADRKLARNLPQKNYYQQQQQQQQPQNNVKIPKIIKTQHPDKEDSTADVNIAKTDSEVNESQYLHSNQPNSTNMNTIMEDLSNINSFVTSSVIKDIKSTPSKILENSPILYRRRSQSISDEKEKAKDNENQVEKKKDPLNSVKTAMPSLESPSSLLPIQMSPLGKYSKPLSQQINKLNTKVSSLQRIMGEEIKNLDNEVVETESSISNNKKRLITIAHQIEDAFDSVSNKTPINSISDLQSRIKETSSKLNSEKQNFIQSLEKSQALKLATIVQDEESKVDMNTNSSSHPEKQEDEEPIPKSTSETSSPKNTKADAKFSNTVQESYDVNETLRLATELTILQFKRRMTTLKISEAKSKINSSVKLDKYRNLIGITIENIDSKLDDIEKDLRANA	binds	binds		
Swi6 (protein, UniProt P09959 1-803) MALEEVVRYLGPHNEIPLTLTRDSETGHFLLKHFLPILQQYHDTGNINETNPDSFPTDEERNKLLAHYGIAVNTDDRGELWIELEKCLQLLNMLNLFGLFQDAFEFEEPETDQDEEDPSHSKLPENKTKSENSKDNISSKRINNLQDMSLDSDAHRELGSPLKKLKIDTSVIDAESDSTPNTARGKPNDDINKGPSGDNENNGTDDNDRTAGPIITFTHDLTSDFLSSPLKIMKALPSPVVNDNEQKMKLEAFLQRLLFPEIQEMPTSLNNDSSNRNSEGGSSNQQQQHVSFDSLLQEVNDAFPNTQLNLNIPVDEHGNTPLHWLTSIANLELVKHLVKHGSNRLYGDNMGESCLVKAVKSVNNYDSGTFEALLDYLYPCLILEDSMNRTILHHIIITSGMTGCSAAAKYYLDILMGWIVKKQNRPIQSGTNEKESKPNDKNGERKDSILENLDLKWIIANMLNAQDSNGDTCLNIAARLGNISIVDALLDYGADPFIANKSGLRPVDFGAGTSKLQNTNGGDENSKMVSKGDYDGQKNGKAKKIRSQLLKNPPETTSLINDVQNLLNSISKDYENETVQYNEKLEKLHKELNEQREELANSREQLANVKQLKDEYSLMQEQLTNLKAGIEEEEESFREESKKLGIIADESSGIDWDSSEYDADEPFKVEFLSDFLEDKLQKNYEGDISKLLEAESKEQIMEQIRNQLPAEKIQSMLPPTVLLKARINAYKRNDKHLTNVLDTISTKQSELENKFRRVLSLCLKIDENKVDNMLDGLLQAISSEDPQDIDTDEMQDFLKKHAS	binds	binds		
Swi6 (recombinant, insect cells) (protein, UniProt P09959 1-803) MALEEVVRYLGPHNEIPLTLTRDSETGHFLLKHFLPILQQYHDTGNINETNPDSFPTDEERNKLLAHYGIAVNTDDRGELWIELEKCLQLLNMLNLFGLFQDAFEFEEPETDQDEEDPSHSKLPENKTKSENSKDNISSKRINNLQDMSLDSDAHRELGSPLKKLKIDTSVIDAESDSTPNTARGKPNDDINKGPSGDNENNGTDDNDRTAGPIITFTHDLTSDFLSSPLKIMKALPSPVVNDNEQKMKLEAFLQRLLFPEIQEMPTSLNNDSSNRNSEGGSSNQQQQHVSFDSLLQEVNDAFPNTQLNLNIPVDEHGNTPLHWLTSIANLELVKHLVKHGSNRLYGDNMGESCLVKAVKSVNNYDSGTFEALLDYLYPCLILEDSMNRTILHHIIITSGMTGCSAAAKYYLDILMGWIVKKQNRPIQSGTNEKESKPNDKNGERKDSILENLDLKWIIANMLNAQDSNGDTCLNIAARLGNISIVDALLDYGADPFIANKSGLRPVDFGAGTSKLQNTNGGDENSKMVSKGDYDGQKNGKAKKIRSQLLKNPPETTSLINDVQNLLNSISKDYENETVQYNEKLEKLHKELNEQREELANSREQLANVKQLKDEYSLMQEQLTNLKAGIEEEEESFREESKKLGIIADESSGIDWDSSEYDADEPFKVEFLSDFLEDKLQKNYEGDISKLLEAESKEQIMEQIRNQLPAEKIQSMLPPTVLLKARINAYKRNDKHLTNVLDTISTKQSELENKFRRVLSLCLKIDENKVDNMLDGLLQAISSEDPQDIDTDEMQDFLKKHAS			binds	binds
